No constants are given. Whether binding was seen depends on the method and setting. Some entries that bind do so weakly or less than the wild type.
What was measured:
[1] = molecular target: T1, PAD4 (Phytoalexin Deficient 4) (Arabidopsis) (UniProt Q9S745); experiment: cryo-EM structure
T1 sequence: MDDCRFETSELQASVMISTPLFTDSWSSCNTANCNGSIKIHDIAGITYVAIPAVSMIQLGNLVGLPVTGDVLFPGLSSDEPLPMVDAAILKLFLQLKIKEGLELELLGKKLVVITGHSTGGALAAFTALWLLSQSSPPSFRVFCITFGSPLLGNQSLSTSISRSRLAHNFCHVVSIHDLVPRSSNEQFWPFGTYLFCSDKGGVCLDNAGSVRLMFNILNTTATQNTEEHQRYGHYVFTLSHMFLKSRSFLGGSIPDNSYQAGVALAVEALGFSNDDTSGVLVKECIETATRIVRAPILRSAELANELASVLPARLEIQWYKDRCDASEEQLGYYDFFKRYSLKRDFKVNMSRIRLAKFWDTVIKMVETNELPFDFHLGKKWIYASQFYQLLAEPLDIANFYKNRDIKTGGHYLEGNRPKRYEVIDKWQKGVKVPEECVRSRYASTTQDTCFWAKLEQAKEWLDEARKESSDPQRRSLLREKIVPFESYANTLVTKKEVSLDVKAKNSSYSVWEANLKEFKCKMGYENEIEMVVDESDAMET

[2] = molecular target: T1, PAD4 (Phytoalexin Deficient 4) (Arabidopsis); experiment: co-purification
[3] = molecular target: T1, PAD4 (Phytoalexin Deficient 4) (Arabidopsis); experiment: crystal structure

Measured: binding

B1: EDS1 (Enhanced Disease Susceptibility 1) (protein, UniProt Q9XF23 1-623)
chain: MAFEALTGINGDLITRSWSASKQAYLTERYHKEEAGAVVIFAFQPSFSEKDFFDPDNKSSFGEIKLNRVQFPCMRKIGKGDVATVNEAFLKNLEAVIDPRTSFQASVEMAVRSRKQIVFTGHSSGGATAILATVWYLEKYFIRNPNVYLEPRCVTFGAPLVGDSIFSHALGREKWSRFFVNFVTRFDIVPRITLARKASVEETLPHVLAQLDPRNSSVQESEQRITEFYTSVMRDTSTVANQAVCELTGSAEAILETLSSFLELSPYRPAGTFVFSTEKRLVAVNNSDAILQMLFYTCQASDEQEWSLIPFRSIRDHHSYEELVQSMGMKLFNHLDGENSIESSLNDLGVSTRGRQYVQAALEEEKKRVENQKKIIQVIQQERFLKKLAWIEDEYKPKCQAHKNGYYDSFKVSNEENDFKANVKRAELAGVFDEVLGLLKKCQLPDEFEGDIDWIKLATRYRRLVEPLDIANYHRHLKNEDTGPYMKRGRPTRYIYAQRGYEHHILKPNGMIAEDVFWNKVNGLNLGLQLEEIQETLKNSGSECGSCFWAEVEELKGKPYEEVEVRVKTLEGMLREWITAGEVDEKEIFLEGSTFRKWWITLPKNHKSHSPLRDYMMDEITDT
binds: all assays above
